Laboratory results as given in the supplement of paper PMC10849652.
The other results are listed elsewhere or left out.

Chains of the proteins cited; added tags and fusions are not shown. Lines headed by an entry give the natural chain unless they say otherwise; changes in a name come on top.
UniProt Q66K89: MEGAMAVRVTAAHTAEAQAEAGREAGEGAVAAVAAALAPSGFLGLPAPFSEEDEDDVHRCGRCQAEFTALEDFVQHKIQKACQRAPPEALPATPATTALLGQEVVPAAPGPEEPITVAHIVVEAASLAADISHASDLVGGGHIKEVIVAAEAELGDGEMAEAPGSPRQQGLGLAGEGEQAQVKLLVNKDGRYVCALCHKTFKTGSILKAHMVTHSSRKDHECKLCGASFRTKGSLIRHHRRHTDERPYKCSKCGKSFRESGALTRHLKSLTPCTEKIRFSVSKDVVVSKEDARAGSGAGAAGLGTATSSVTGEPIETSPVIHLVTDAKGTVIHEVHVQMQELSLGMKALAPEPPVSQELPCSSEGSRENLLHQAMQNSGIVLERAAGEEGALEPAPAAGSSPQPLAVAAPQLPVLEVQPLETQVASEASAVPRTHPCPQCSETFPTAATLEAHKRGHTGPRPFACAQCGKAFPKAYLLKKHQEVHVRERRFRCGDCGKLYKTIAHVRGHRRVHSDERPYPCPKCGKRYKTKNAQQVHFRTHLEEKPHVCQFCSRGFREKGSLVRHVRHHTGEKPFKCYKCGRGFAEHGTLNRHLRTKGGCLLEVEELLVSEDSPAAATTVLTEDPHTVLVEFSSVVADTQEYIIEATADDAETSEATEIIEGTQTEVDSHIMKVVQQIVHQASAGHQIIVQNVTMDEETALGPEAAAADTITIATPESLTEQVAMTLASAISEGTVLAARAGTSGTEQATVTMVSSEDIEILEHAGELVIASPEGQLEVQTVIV
UniProt Q9Y2G8: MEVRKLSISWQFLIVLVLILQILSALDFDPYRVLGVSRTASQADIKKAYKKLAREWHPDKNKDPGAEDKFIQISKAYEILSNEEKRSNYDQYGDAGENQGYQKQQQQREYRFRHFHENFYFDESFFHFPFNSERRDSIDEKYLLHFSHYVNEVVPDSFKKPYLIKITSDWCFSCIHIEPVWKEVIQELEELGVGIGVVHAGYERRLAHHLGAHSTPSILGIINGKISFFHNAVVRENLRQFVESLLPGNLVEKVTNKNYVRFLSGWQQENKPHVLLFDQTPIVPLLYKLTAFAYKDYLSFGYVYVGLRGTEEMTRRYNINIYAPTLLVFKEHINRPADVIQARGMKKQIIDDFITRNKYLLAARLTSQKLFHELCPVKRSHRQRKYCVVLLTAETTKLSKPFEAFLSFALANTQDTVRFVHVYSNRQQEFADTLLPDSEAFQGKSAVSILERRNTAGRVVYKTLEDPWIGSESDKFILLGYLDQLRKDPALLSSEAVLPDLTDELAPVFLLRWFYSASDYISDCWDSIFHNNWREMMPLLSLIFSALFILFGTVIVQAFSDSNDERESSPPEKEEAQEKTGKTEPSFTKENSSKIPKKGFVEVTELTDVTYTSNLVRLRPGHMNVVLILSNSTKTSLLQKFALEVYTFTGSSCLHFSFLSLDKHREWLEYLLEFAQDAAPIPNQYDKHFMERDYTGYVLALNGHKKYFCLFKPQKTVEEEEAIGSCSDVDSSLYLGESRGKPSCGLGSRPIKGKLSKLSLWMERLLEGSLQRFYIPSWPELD
UniProt Q96DA6: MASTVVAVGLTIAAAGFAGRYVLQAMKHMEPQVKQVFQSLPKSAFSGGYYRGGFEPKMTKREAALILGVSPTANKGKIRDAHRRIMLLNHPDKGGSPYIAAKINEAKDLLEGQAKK
UniProt P23919: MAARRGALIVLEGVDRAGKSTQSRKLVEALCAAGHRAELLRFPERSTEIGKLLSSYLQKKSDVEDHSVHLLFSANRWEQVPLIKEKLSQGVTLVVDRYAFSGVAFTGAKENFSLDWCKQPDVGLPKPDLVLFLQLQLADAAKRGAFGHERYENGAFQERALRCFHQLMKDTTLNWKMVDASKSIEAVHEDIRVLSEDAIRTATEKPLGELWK
UniProt Q99615: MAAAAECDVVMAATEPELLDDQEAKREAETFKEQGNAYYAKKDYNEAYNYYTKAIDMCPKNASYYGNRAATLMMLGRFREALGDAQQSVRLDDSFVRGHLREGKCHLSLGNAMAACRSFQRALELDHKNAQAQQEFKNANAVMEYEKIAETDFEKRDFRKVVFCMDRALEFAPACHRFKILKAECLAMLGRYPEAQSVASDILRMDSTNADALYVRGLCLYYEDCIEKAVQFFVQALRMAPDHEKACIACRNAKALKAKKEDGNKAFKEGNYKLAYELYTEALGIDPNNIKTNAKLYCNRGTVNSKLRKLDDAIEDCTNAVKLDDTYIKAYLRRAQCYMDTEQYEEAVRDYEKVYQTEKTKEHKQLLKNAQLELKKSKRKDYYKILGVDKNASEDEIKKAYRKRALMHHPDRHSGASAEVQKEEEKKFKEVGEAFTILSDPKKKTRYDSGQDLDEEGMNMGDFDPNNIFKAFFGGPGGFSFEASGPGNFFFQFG
UniProt Q9BV94: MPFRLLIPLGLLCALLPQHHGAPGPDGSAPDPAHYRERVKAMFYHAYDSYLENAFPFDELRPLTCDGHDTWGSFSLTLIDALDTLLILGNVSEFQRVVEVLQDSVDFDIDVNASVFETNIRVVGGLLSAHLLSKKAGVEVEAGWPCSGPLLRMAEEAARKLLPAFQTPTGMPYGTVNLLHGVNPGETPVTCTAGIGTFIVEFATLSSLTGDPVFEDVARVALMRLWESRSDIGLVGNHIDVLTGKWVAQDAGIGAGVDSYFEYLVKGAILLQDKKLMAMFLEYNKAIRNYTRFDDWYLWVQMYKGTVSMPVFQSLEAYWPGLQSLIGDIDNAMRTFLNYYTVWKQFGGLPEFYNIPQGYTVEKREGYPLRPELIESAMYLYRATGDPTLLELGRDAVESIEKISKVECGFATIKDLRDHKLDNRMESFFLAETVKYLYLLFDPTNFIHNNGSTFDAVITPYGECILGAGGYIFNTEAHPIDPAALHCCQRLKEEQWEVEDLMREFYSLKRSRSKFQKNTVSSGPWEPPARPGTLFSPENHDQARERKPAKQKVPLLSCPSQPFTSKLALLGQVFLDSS
UniProt Q3B7T1: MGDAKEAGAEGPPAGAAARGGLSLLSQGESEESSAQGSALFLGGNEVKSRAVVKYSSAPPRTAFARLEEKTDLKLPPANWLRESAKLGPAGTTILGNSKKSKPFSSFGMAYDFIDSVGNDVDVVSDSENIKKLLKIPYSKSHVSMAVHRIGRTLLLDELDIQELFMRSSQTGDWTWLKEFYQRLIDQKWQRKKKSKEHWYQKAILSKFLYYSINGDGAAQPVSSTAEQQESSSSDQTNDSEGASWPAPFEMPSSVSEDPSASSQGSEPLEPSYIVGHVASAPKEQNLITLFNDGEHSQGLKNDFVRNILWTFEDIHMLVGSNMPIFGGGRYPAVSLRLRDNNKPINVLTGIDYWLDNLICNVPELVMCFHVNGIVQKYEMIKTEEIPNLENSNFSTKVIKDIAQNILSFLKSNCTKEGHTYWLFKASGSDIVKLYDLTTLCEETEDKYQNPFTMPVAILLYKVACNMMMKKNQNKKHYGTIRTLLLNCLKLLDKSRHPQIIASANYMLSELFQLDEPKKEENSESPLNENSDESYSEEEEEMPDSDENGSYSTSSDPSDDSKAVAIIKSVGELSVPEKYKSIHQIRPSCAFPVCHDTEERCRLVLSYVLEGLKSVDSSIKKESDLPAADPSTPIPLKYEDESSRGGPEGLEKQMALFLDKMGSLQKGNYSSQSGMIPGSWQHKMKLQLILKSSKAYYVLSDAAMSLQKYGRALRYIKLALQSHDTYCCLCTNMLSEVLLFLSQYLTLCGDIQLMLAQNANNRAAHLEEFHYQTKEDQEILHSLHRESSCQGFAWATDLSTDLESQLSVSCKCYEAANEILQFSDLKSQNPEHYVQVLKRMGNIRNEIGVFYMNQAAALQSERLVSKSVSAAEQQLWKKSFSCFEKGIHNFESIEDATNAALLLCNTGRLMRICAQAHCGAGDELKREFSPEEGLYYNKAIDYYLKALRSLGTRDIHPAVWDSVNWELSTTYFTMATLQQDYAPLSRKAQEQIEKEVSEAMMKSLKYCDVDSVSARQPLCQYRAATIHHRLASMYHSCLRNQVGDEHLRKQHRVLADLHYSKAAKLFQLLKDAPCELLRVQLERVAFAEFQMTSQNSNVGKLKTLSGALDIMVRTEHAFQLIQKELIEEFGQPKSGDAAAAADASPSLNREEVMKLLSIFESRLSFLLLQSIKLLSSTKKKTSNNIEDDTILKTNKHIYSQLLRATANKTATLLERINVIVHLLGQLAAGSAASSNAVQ
UniProt Q8N5C7: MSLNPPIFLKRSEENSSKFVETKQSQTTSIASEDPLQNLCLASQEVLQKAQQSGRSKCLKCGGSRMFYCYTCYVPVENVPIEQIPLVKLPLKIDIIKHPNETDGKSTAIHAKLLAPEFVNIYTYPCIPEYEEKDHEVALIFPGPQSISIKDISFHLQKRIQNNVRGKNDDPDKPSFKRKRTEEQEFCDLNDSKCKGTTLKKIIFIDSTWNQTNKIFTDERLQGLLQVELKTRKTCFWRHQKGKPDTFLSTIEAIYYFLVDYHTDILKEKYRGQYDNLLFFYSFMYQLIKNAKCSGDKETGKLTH
UniProt P25686: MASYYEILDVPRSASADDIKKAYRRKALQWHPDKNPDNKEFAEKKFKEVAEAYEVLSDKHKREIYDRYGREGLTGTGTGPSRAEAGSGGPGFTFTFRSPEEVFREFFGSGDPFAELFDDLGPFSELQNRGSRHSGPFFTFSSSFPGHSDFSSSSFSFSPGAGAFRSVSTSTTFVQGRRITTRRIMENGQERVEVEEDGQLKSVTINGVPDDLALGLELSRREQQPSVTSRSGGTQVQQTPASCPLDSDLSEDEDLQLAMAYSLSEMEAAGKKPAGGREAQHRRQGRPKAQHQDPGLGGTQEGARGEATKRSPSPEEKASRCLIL
UniProt Q5JPH6: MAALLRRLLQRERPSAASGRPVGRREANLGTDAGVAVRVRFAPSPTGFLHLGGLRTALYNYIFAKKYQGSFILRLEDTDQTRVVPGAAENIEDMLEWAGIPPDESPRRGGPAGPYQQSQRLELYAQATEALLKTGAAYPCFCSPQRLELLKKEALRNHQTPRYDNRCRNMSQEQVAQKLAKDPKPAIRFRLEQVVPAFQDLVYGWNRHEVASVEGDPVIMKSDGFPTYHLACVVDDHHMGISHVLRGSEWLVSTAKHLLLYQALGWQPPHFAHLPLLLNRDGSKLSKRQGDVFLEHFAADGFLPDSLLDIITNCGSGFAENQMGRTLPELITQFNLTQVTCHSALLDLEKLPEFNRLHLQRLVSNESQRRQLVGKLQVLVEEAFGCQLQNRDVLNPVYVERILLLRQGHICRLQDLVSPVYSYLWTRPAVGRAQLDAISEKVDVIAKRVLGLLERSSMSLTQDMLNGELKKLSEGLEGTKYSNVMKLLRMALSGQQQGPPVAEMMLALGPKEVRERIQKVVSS
UniProt O95147: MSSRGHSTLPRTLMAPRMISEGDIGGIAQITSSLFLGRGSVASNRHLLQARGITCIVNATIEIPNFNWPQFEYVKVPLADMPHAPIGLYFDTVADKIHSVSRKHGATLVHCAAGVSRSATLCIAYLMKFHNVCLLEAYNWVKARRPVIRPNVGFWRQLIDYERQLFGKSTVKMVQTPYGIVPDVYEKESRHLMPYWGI

How the values were obtained:
Experiment in all cases: log2 fold change, soluble protein after heating vs DMSO (PISA); higher = thermal stabilisation; K562 cells, 10 uM, 30 min; active = over 0.2 and 3.5 SD of the protein, either way, in both replicates (recomputed)
[1] = compound: CN1CCN(CCOc2cc(OC3CCOCC3)c3c(Nc4c(Cl)ccc5c4OCO5)ncnc3c2)CC1 [saracatinib]
Outline: (§1)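 Soluble protein was quantified by TMTpro 16plex LC-MS/MS after channel sums were equalised. It was obtained as the supernatant after 21,000xg for 90 min from pooled aliquots of K562 cells (2×10^6 cells/mL, 10 μM compound, 30 min) heated for 3 min across 48°C-58°C and extracted in PBS with 0.5% NP-40 at 4°C. Thermal stability values are relative to control samples and come from duplicates. They are given as log2 fold changes.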

[2] = compound: CN1CCN(c2nc(C3=C(c4c[nH]c5ccccc45)C(=O)NC3=O)c3ccccc3n2)CC1 [sotrastaurin]
Outline: as §1

[3] = compound: CN1CC[C@H](c2c(O)cc(O)c3c(=O)cc(-c4ccccc4Cl)oc23)[C@H](O)C1 [alvocidib]
Outline: as §1

[4] = compound: CN1CCc2c(c3ccccc3n2Cc2ccc(C(=O)NO)cc2)C1 [Tubastatin A]
Outline: as §1

[5] = compound: CNC(=O)c1ccc(Nc2ncc(C(F)(F)F)c(NCc3nccnc3N(C)S(C)(=O)=O)n2)cc1 [defactinib]
Outline: as §1

[6] = compound: CNc1nc(-c2ccc3c(N)n[nH]c3c2)cc(N2C[C@@H](C(=O)NC3CCCCC3)CC[C@H]2C)n1
Outline: as §1

[7] = compound: COC(=O)[C@H](CCSC)NC(=O)C1=C(C=C(C=C1)NC[C@H](CS)N)C2=CC=CC=C2
Outline: as §1

[8] = compound: COC1=CC=C(C=C1)CN2C=CC3=C2C=C(C=C3)C(=O)NO
Outline: as §1

[9] = compound: CON(C)C(=O)N1N=C(c2cc(F)ccc2F)S[C@@]1(CCCN)c1ccccc1 [filanesib]
Outline: as §1

[10] = compound: CO[C@H]1C[C@@H]2CC[C@@H](C)[C@@](O)(O2)C(=O)C(=O)N2CCCC[C@H]2C(=O)O[C@H]([C@H](C)C[C@@H]2CC[C@H](n3cnnn3)[C@H](OC)C2)CC(=O)[C@H](C)/C=C(\C)[C@@H](O)[C@@H](OC)C(=O)[C@H](C)C[C@H](C)/C=C/C=C/C=C/1C [zotarolimus]
Outline: as §1

[11] = compound: COc1cc(C(=O)O)ccc1NC(=O)[C@@H]1N[C@@H](CC(C)(C)C)[C@](C#N)(c2ccc(Cl)cc2F)[C@H]1c1cccc(Cl)c1F [idasanutlin]
Outline: as §1

[12] = compound: COc1cc(Nc2ncc3c(n2)-c2ccc(Cl)cc2C(c2c(F)cccc2OC)=NC3)ccc1C(=O)O [alisertib]
Outline: as §1

[13] = compound: COc1cc2nc(-c3cc(F)ccc3O)nc(N[C@@H]3CNC[C@H]3C(C)(C)O)c2cc1OC
Outline: as §1

[14] = compound: COc1cccc2cc(-c3nc([C@H]4CC[C@H](C(=O)O)CC4)n4ncnc(N)c34)[nH]c12
Outline: as §1

[15] = compound: CS(=O)(=O)CCNCc1ccc(-c2ccc3ncnc(Nc4ccc(OCc5cccc(F)c5)c(Cl)c4)c3c2)o1 [lapatinib]
Outline: as §1

[16] = compound: CS(=O)(=O)N1CCN(Cc2cc3nc(-c4cccc5[nH]ncc45)nc(N4CCOCC4)c3s2)CC1 [pictilisib]
Outline: as §1

[17] = compound: CNC(=O)C1=CC=CC=C1NC2=NC(=NC=C2Cl)NC3=C(C=C(C=C3)N4CCOCC4)OC
Outline: as §1

[18] = compound: CNCc1ccc(-c2[nH]c3cc(F)cc4c3c2CCNC4=O)cc1 [rucaparib]
Outline: as §1

[19] = compound: COC(=O)N[C@@H](C)CNc1nccc(-c2cn(C(C)C)nc2-c2cc(Cl)cc(NS(C)(=O)=O)c2F)n1 [encorafenib]
Outline: as §1

[20] = compound: COc1cc2ncnc(Nc3ccc(F)c(Cl)c3)c2cc1OCCCN1CCOCC1 [gefitinib]
Outline: as §1

Target | log2 fold change [1] | log2 fold change [2] | log2 fold change [3] | log2 fold change [4] | log2 fold change [5] | log2 fold change [6] | log2 fold change [7] | log2 fold change [8] | log2 fold change [9] | log2 fold change [10] | log2 fold change [11] | log2 fold change [12] | log2 fold change [13] | log2 fold change [14] | log2 fold change [15] | log2 fold change [16] | log2 fold change [17] | log2 fold change [18] | log2 fold change [19] | log2 fold change [20]
E4F1 (UniProt Q66K89) | inactive: 0.121 | inactive: 0.109 | inactive: -0.064 | inactive: -0.003 | inactive: -0.045 | inactive: -0.099 | inactive: 0.166 | inactive: -0.24 | inactive: 0.331 | inactive: 0.685 | inactive: 0.082 | inactive: 0.449 | inactive: -0.123 | inactive: 0.225 | inactive: 0.094 | inactive: -0.194 | – | – | – | –
DNAJC16 (UniProt Q9Y2G8) | inactive: -0.117 | inactive: -0.019 | inactive: 0.047 | inactive: -0.046 | inactive: 0.157 | inactive: 0.034 | inactive: -0.081 | inactive: -0.059 | inactive: -0.081 | inactive: -0.106 | inactive: 0.027 | – | inactive: 0.001 | – | inactive: 0.057 | inactive: 0.022 | inactive: 0.102 | inactive: 0.157 | inactive: 0.094 | inactive: 0.007
DNAJC19 (UniProt Q96DA6) | inactive: 0.025 | inactive: -0.029 | – | inactive: -0.038 | inactive: -0.027 | inactive: -0.028 | inactive: -0.012 | inactive: 0.096 | inactive: -0.155 | inactive: 0.016 | inactive: -0.004 | inactive: -0.022 | active: -0.205 | inactive: 0.045 | inactive: -0.012 | inactive: 0.025 | inactive: 0.003 | inactive: 0.01 | inactive: -0.044 | inactive: 0.006
DTYMK (UniProt P23919) | inactive: -0.02 | inactive: 0.06 | – | inactive: -0.022 | inactive: 0.004 | inactive: 0.003 | inactive: 0.013 | inactive: -0.043 | inactive: -0.09 | inactive: -0.023 | inactive: -0.065 | inactive: -0.014 | inactive: 0.047 | inactive: 0.152 | inactive: -0.026 | inactive: -0.054 | inactive: -0.062 | inactive: -0.044 | inactive: 0.005 | inactive: -0.108
DNAJC7 (UniProt Q99615) | inactive: 0.001 | inactive: -0.05 | – | inactive: 0.002 | inactive: -0.072 | inactive: 0.056 | inactive: -0.003 | inactive: 0.037 | inactive: -0.025 | inactive: 0.07 | inactive: -0.043 | inactive: -0.044 | inactive: -0.031 | inactive: -0.031 | inactive: 0 | inactive: 0.014 | inactive: 0.034 | inactive: -0.016 | inactive: 0.045 | inactive: 0.068
EDEM2 (UniProt Q9BV94) | inactive: -0.23 | inactive: -0.05 | – | inactive: 0.022 | inactive: 0.036 | inactive: 0.079 | inactive: 0.105 | inactive: -0.149 | inactive: -0.03 | inactive: 0.022 | inactive: -0.154 | active: -0.441 | inactive: 0.028 | inactive: 0.205 | inactive: -0.064 | inactive: 0.09 | inactive: -0.016 | – | – | inactive: 0.033
DYRK1A isoform 2 (UniProt Q13627) | inactive: -0.046 | inactive: 0.022 | – | inactive: 0.058 | inactive: 0.03 | inactive: 0.029 | inactive: -0.021 | inactive: -0.061 | inactive: 0.01 | inactive: 0.023 | inactive: 0 | inactive: -0.03 | inactive: 0.004 | inactive: 0.036 | inactive: -0.034 | inactive: 0.017 | active: -0.264 | inactive: 0.036 | inactive: 0.014 | inactive: 0.007
EDRF1 (UniProt Q3B7T1) | inactive: 0.104 | inactive: 0.012 | – | – | – | inactive: 0.07 | – | – | inactive: 0.052 | active: 0.419 | – | inactive: -0.033 | – | inactive: 0.044 | – | inactive: 0.244 | inactive: -0.111 | inactive: 0.098 | inactive: 0.058 | –
DTWD1 (UniProt Q8N5C7) | inactive: 0.007 | inactive: -0.02 | – | inactive: -0.014 | inactive: -0.03 | inactive: 0.152 | inactive: -0.143 | inactive: -0.227 | inactive: -0.081 | inactive: 0.031 | inactive: -0.115 | inactive: -0.057 | inactive: 0.078 | inactive: 0.031 | inactive: 0.044 | inactive: 0.124 | inactive: 0.007 | inactive: 0.011 | inactive: 0.051 | inactive: 0.069
DNAJB2 (UniProt P25686) | inactive: 0.042 | – | – | – | – | inactive: -0.083 | – | – | – | – | – | – | inactive: -0.018 | – | inactive: 0.005 | inactive: 0 | – | inactive: 0.018 | inactive: 0.112 | –
EARS2 isoform 2 (UniProt Q5JPH6) | inactive: 0.014 | inactive: -0.048 | – | inactive: 0.042 | inactive: -0.08 | inactive: 0.06 | inactive: -0.074 | inactive: -0.068 | inactive: -0.19 | – | inactive: -0.103 | inactive: 0.115 | inactive: 0.163 | inactive: 0.088 | inactive: -0.102 | – | inactive: -0.125 | inactive: 0.104 | inactive: -0.092 | inactive: -0.03
DUSP14 (UniProt O95147) | inactive: 0.054 | – | inactive: -0.145 | inactive: 0.004 | inactive: -0.035 | inactive: -0.108 | inactive: -0.06 | – | – | inactive: 0.035 | inactive: -0.003 | inactive: 0.742 | – | inactive: 0.3 | – | inactive: 0.039 | inactive: -0.212 | – | – | –
